{
  "source": "patent US20250115640A1",
  "about": "“NEUROPROTECTIVE POLYPEPTIDE COMPOUND AND APPLICATION THEREOF” (Innerse (Zhuhai) Pharmaceutical Co., Ltd., priority 2021, published 2025)",
  "key": {"[1]": {"tested_on": "MCAO ischemia-reperfusion model", "assay": "MCAO ischemia-reperfusion model, rat Neurological Severity Scores (NSS) (Example 6)", "assay_type": "in vivo, Sprague-Dawley (SD) rats", "excerpt": "3) Cerebral ischemia reperfusion surgery: • A. Isolating and exposing blood vessels: the skin of the surgical area was shaved, and the rats were placed under a surgical microscope. The skin of the rat was cut along the midline with ophthalmic scissors, with a cut of about 2 cm length. Through the right neck of the rat, the muscle tissue of the right neck was bluntly isolated and opened with a microforcep to expose the right common carotid artery (CCA), and then isolated upward along the common carotid artery to further expose the external carotid artery (ECA) and internal carotid artery (ICA); • B. The proximal end of CCA was ligated and the CCA at the Y-shaped branch was temporarily clamped; the ligated site of CCA to the clamped site of ICA were threaded, tied with a loose knot (pre-ligation) for later use, and a small incision at the proximal end of the pre-ligation was made; • C. Inserting the suture emboli: Suture emboli No. 4-0 was inserted through the incision of CCA, pushed slowly and gently into the internal carotid artery, and stopped temporarily at the artery clamp of ICA. The pre-ligation thread was tied tightly (to avoid severe bleeding when pushing the suture emboli), then the artery clamp that blocked the blood flow of ICA was removed, and the suture emboli was immediately pushed into ICA until entering into the cranium. One should be careful not to insert the suture emboli into the pterygopalatine artery, which is another branch of the internal carotid artery and is one of the extra-cranial branches of ICA. […] Then the insertion was terminated and the time was recorded. […] Note: The first digit of the animal number represents the group (1, 2, 3 and 4 represent the model control group, S3 group, t-PA group and S3+t-PA group respectively), and the second letter represents the gender (M is male), the last three digits represent the animal serial number. a means giving 3 mL S3 and 3 mL sterile water for injection, b means giving 3 mL t-PA and 3 mL sterile water for injection, c means giving 3 mL S3 and 3 mL t-PA. • Route of administration: tail vein injection; • Administration time: immediately after ischemia-reperfusion (within 5 minutes); • Dosing frequency and cycle: 1 dose; • The day of modeling was defined as D0, and the day before was defined as D-1. • Measurement time: 24 hours before the modeling, 24 and 72 hours after the modeling; • Animals measured: all the surviving animals planned to be measured; • Measurement method: a motor function test, sensory test, balance test, and reflex and abnormal behavior test were performed on animals, according to the rat for details. […]"}, "[2]": {"tested_on": "MCAO ischemia-reperfusion model", "assay": "MCAO ischemia-reperfusion model, TTC staining, cerebral infarct area and inhibition rate (Example 6)", "assay_type": "in vivo, Sprague-Dawley (SD) rats"}, "[3]": {"tested_on": "rat model of cerebral ischemia via middle cerebral artery occlusion (MCAO)", "assay": "Rat MCAO cerebral ischemia model, TTC staining, cerebral infarct volume (Example 5)", "assay_type": "in vivo, SD rats", "settings": "3 mg/kg tail vein 1-2 h after ligation, TTC after 22-24 h", "method": "In order to determine use of the synthetic peptides provided herein in a neurological disease, SD rats were used to prepare a rat model of cerebral ischemia via middle cerebral artery occlusion (MCAO). These rats were injected intravenously 1-2 hours after ischemia, and subjected for a behavioral observation and scoring after 22-24 hours. After the behavioral observation, the rats were euthanized and their brains were removed, cut to sections and stained with TTC for quantitative analysis, and the cerebral infarct volume % was calculated. The experimental SD rats were weighed and anesthetized with chloral hydrate. After anesthesia, the limbs of the rats were fixed, and the rats were placed in a supine position, connected to the small-animal monitor, and monitored for important physiological parameters such as body temperature, blood pressure and heart rate, etc. The rats were shaved at neck and disinfected with 75% alcohol cotton ball. […] The experimental rats were monitored with the small-animal monitor to evaluate if their physiological parameters were normal, and the rats were placed on a small-animal electric blanket to keep their body temperature until they waked up and placed in animal cages. […] The quantitative analysis of photos after TTC staining was performed using Image J software. […]"}, "[4]": {"tested_on": "rat model of cerebral ischemia via middle cerebral artery occlusion (MCAO)", "assay": "Rat MCAO cerebral ischemia model, behavioral observation and scoring 0-5 (Example 5)", "assay_type": "in vivo, SD rats", "settings": "3 mg/kg tail vein, scoring 22-24 h after ligation, scale 0-5", "method": "In order to determine use of the synthetic peptides provided herein in a neurological disease, SD rats were used to prepare a rat model of cerebral ischemia via middle cerebral artery occlusion (MCAO). These rats were injected intravenously 1-2 hours after ischemia, and subjected for a behavioral observation and scoring after 22-24 hours. After the behavioral observation, the rats were euthanized and their brains were removed, cut to sections and stained with TTC for quantitative analysis, and the cerebral infarct volume % was calculated. The experimental SD rats were weighed and anesthetized with chloral hydrate. After anesthesia, the limbs of the rats were fixed, and the rats were placed in a supine position, connected to the small-animal monitor, and monitored for important physiological parameters such as body temperature, blood pressure and heart rate, etc. The rats were shaved at neck and disinfected with 75% alcohol cotton ball. A middle incision of about 2 cm length was then made on the neck of the rats, and the submandibular gland of the rats was bluntly separated while avoiding damage to the gland. […] The experimental rats were monitored with the small-animal monitor to evaluate if their physiological parameters were normal, and the rats were placed on a small-animal electric blanket to keep their body temperature until they waked up and placed in animal cages. […]"}, "[5]": {"settings": "3 mg/kg i.v. immediately after reperfusion, 24 h after surgery, group mean ± SD"}},
  "note": "Several values for one entry are separate records, joined by “and”; a condition that tells them apart may be missing. Identical values can stand only once. At least one peptide structure holds a part that was inferred or is arguable (an end, a ring closure or a residue). Square brackets hold non-standard residues; d marks the D form. Peptide text beside a SMILES is read from it. βAla = NCCC(=O)O",
  "data": [
    {"compound": "CC[C@H](C)[C@H](NC(=O)[C@H](CO)NC(=O)[C@H](CO)NC(=O)[C@H](CC(C)C)NC(=O)[C@H](CCCCN)NC(=O)[C@H](Cc1c[nH]cn1)NC(=O)CCN)C(=O)N[C@@H](CCC(=O)O)C(=O)N[C@@H](CO)C(=O)N[C@@H](CC(=O)O)C(=O)N[C@H](C(=O)O)C(C)C", "note": "[Example S3, beta-Ala-His-Lys-Leu-Ser-Ser-Ile-Glu-Ser-Asp-Val] (H-[βAla]HKLSSIESDV-OH)", "values": [
      {"measurement": "NSS D2, individual animals", "setting": "[1]; 3 mg/kg i.v. immediately after reperfusion, after surgery, individual animal", "value": "7.5 and 3.5 and 8 and 6 and 5 and 8.5 (2×)"},
      {"measurement": "NSS D 2", "setting": "[1]; 3 mg/kg i.v. immediately after reperfusion, one day after surgery, group mean ± SD", "value": "6.71±1.79"},
      {"measurement": "NSS reduction rate", "setting": "[1]; one day after surgery, relative to model control group, group mean ± SD", "value": "13.36±23.1", "unit": "%"},
      {"measurement": "NSS reduction rate, individual animals", "setting": "[1]; relative to model control group, individual animal", "value": "3.23% and 54.84% and −3.23% and 22.58% and 35.48% and −9.68% (2×)"},
      {"measurement": "Infarct area, individual animals", "setting": "[2]; 3 mg/kg i.v. immediately after reperfusion, 24 h after modeling, individual animal", "value": "16.066% and 15.368% and 19.887% and 15.305% and 13.784% and 16.846% and 16.481%"},
      {"measurement": "Infarct area weight", "setting": "[2]; [5]", "value": "0.233 ± 0.024", "unit": "g"},
      {"measurement": "infarct area", "setting": "[2]; [5]", "value": "16.248±1.749", "unit": "%"},
      {"measurement": "Cerebral infarct inhibition rate", "setting": "[2]; 3 mg/kg i.v. immediately after reperfusion, 24 h after surgery, vs model control, group mean ± SD", "value": "32.279±7.291", "unit": "%"},
      {"measurement": "Weight of infarct area, individual animals", "setting": "[2]; 24 h after modeling, individual animal", "value": "0.223 g (2×) and 0.217 g and 0.281 g and 0.200 g and 0.250 g and 0.237 g"},
      {"measurement": "Cerebral infarct inhibition rate, individual animals", "setting": "[2]; vs model control group, individual animal", "value": "33.038% and 35.947% and 17.114% and 36.209% and 42.552% and 29.786% and 31.308%"},
      {"measurement": "Cerebral infarct volume (TTC quantification), mean value", "setting": "[3]; group mean, 6 rats", "value": "0.150±0.047 and 0.128"},
      {"measurement": "Cerebral infarct volume (TTC quantification), individual rats No. 1-6", "setting": "[3]; individual rat", "value": "0.128 and 0.186 and 0.075 and 0.158 and 0.210 and 0.146"},
      {"measurement": "Behavioral score, mean value", "setting": "[4]; group mean, 6 rats", "value": "2.5±1.0 and 2.5"},
      {"measurement": "Behavioral score, individual rats No. 1-6", "setting": "[4]; individual rat", "value": "3 (2×) and 4 and 1 and 2 (2×)"}
    ]}
  ]
}
